Values from PubChem BioAssay AID1159584 (Peter MacCallum Cancer Centre, 2016)
Test: 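Knock-downs that harm CDH1-null cells more than parental MCF10A cells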 (primary screen). Cell system: human MCF10A breast epithelial cells, parental and CDH1-null. Reagent: siRNA against human genes. Detection: 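ATP luminescence (CellTiter-Glo) viability per line relative to mean mock wells over all plates, and the ratio of CDH1-null to parental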. Scale: CDH1-null / parental viability ratio: higher = CDH1-null cells survive relatively better than parental; CDH1-null viability vs mock: higher = more viable CDH1-null cells. Units: CDH1-null viability vs mock in fraction of mock.
In all, the deposit lists about 18,000 reagents; below is a part drawn at random. Not all columns of the deposit are shown. Not given: the amount of reagent, the time to read-out.

With knock-down of KREMEN1, the screen gave CDH1-null / parental viability ratio 1.89; CDH1-null viability vs mock 0.68.
Knock-down of PIGT gave: CDH1-null / parental viability ratio 1.19; CDH1-null viability vs mock 0.76.
Depletion of ZBTB41 gave: CDH1-null / parental viability ratio 0.95; CDH1-null viability vs mock 1.06.
For USP29, the entry reads CDH1-null / parental viability ratio 0.95; CDH1-null viability vs mock 0.79.
Knock-down of ZMIZ1 came out at: CDH1-null / parental viability ratio 0.96; CDH1-null viability vs mock 0.75.
Knock-down of PHF23 gave: CDH1-null / parental viability ratio 0.97; CDH1-null viability vs mock 0.92.
Against CCDC198, the values are CDH1-null / parental viability ratio 0.67; CDH1-null viability vs mock 0.47.
After knock-down of ARL8A, the screen gave CDH1-null / parental viability ratio 0.93; CDH1-null viability vs mock 0.56.
Depletion of SLC7A14 came out at: CDH1-null / parental viability ratio 1.05; CDH1-null viability vs mock 0.8.
With knock-down of LY6G5C, the screen gave CDH1-null / parental viability ratio 0.98; CDH1-null viability vs mock 0.86.
After knock-down of GTF2IRD2 the results were CDH1-null / parental viability ratio 1.43; CDH1-null viability vs mock 0.6.
LAS1L scored CDH1-null / parental viability ratio 0.93; CDH1-null viability vs mock 0.65.
Depletion of ACOX2 resulted in: CDH1-null / parental viability ratio 0.95; CDH1-null viability vs mock 0.82.
After knock-down of LRCH2, the screen gave CDH1-null / parental viability ratio 0.91; CDH1-null viability vs mock 0.4.
With knock-down of GOLGB1, the record shows CDH1-null / parental viability ratio 1.52; CDH1-null viability vs mock 0.94.
Knock-down of PICALM gave: CDH1-null / parental viability ratio 1.08; CDH1-null viability vs mock 0.94.
With knock-down of SCGB1D4, the record shows CDH1-null / parental viability ratio 0.97; CDH1-null viability vs mock 1.02.
With knock-down of NIPAL3, the record shows CDH1-null / parental viability ratio 0.84; CDH1-null viability vs mock 0.9.
With knock-down of OR5AU1, the record shows CDH1-null / parental viability ratio 0.84; CDH1-null viability vs mock 0.84.
Depletion of WDR62 came out at: CDH1-null / parental viability ratio 0.79; CDH1-null viability vs mock 0.41.
Against OR5M11, the values are CDH1-null / parental viability ratio 1.26; CDH1-null viability vs mock 0.92.
With knock-down of PRAMEF1, the record shows CDH1-null / parental viability ratio 0.76; CDH1-null viability vs mock 0.6.
Knock-down of PPP3R2 came out at: CDH1-null / parental viability ratio 1.14; CDH1-null viability vs mock 0.8.

Look-ups from above.
PICALM, CDH1-null / parental viability ratio → 1.08
Entry of USP29 under “CDH1-null viability vs mock”: 0.79
ACOX2, CDH1-null viability vs mock → 0.82
Under “CDH1-null / parental viability ratio”, ARL8A reads 0.93
For “CDH1-null viability vs mock”, NIPAL3 reads 0.9

Additional reagents follow.
Against SRI, the entry reads CDH1-null / parental viability ratio 1.05; CDH1-null viability vs mock 0.78.
For LENG8, the values are CDH1-null / parental viability ratio 0.74; CDH1-null viability vs mock 0.51.
Silencing of AKAP4 came out at: CDH1-null / parental viability ratio 0.91; CDH1-null viability vs mock 1.13.
With knock-down of IL5, the record shows CDH1-null / parental viability ratio 1.33; CDH1-null viability vs mock 1.28.
For OR10W1, the values are CDH1-null / parental viability ratio 0.6; CDH1-null viability vs mock 0.34.
Against ZNF286A, the values are CDH1-null / parental viability ratio 0.91; CDH1-null viability vs mock 0.75.
Against SND1, the entry reads CDH1-null / parental viability ratio 1.16; CDH1-null viability vs mock 1.
After knock-down of TGFBR1, the screen gave CDH1-null / parental viability ratio 1; CDH1-null viability vs mock 0.82.
With knock-down of C2orf76 the results were CDH1-null / parental viability ratio 1.03; CDH1-null viability vs mock 0.75.
With knock-down of HOXC11, the screen gave CDH1-null / parental viability ratio 0.93; CDH1-null viability vs mock 1.02.
Silencing of MEGF9 came out at: CDH1-null / parental viability ratio 1.08; CDH1-null viability vs mock 1.06.
Silencing of TTC21B came out at: CDH1-null / parental viability ratio 0.84; CDH1-null viability vs mock 0.74.
